For 2 substances, binding results are on record in doi:10.1101/2022.09.16.508217 (bioRxiv, 2022).

The chains behind the UniProt entries cited, without tags or fusion partners. Where a name states a change or a piece, a line headed by the entry shows the natural chain unless it says otherwise. A line that says so, or that is headed by a name, gives the form on record, which may keep a tag or linker.
UniProt P15873: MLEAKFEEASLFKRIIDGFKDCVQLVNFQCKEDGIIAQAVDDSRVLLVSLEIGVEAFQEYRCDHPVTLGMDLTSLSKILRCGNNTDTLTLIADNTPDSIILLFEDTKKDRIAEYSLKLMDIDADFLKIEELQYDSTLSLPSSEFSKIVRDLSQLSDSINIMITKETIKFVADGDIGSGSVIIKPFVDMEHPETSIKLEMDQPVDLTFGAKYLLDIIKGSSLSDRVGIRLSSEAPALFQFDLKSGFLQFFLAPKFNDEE
UniProt Q04002: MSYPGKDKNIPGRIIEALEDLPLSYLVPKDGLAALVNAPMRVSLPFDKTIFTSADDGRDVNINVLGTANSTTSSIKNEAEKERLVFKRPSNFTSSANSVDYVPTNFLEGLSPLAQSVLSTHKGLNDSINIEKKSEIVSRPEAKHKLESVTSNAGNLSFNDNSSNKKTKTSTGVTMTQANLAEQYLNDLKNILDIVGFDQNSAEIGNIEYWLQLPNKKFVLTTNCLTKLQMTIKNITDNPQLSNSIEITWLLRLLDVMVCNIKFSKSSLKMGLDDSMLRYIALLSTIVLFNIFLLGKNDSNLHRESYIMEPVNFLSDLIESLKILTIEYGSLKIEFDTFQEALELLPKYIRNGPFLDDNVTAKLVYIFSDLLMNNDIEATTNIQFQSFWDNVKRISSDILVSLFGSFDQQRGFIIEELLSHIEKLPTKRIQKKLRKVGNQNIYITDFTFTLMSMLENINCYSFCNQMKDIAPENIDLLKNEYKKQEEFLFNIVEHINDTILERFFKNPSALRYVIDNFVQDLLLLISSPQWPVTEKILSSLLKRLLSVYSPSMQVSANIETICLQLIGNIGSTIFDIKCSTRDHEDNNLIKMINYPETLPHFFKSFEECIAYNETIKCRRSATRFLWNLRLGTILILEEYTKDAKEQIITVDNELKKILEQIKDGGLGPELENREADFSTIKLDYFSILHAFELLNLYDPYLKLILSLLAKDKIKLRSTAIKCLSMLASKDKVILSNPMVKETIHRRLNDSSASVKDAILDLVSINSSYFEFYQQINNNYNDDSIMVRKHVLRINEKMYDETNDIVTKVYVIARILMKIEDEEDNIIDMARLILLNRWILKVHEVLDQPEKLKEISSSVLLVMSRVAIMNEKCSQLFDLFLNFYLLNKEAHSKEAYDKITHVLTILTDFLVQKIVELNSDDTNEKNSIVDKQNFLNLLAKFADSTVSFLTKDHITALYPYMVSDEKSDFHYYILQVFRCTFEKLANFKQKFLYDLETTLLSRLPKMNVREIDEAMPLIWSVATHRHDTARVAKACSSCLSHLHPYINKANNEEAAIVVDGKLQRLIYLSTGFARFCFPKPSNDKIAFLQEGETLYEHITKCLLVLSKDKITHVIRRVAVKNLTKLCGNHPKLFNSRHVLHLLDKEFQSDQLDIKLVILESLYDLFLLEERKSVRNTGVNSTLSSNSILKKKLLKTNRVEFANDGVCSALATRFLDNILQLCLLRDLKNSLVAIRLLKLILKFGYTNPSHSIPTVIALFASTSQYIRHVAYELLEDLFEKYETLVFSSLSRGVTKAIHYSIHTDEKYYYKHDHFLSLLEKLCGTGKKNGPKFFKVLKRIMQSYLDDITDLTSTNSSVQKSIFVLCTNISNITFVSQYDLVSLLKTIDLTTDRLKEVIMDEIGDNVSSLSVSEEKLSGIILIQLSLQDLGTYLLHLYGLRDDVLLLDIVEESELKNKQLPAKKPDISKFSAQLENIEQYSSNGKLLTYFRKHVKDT
N-terminally 7His8FLAG-tagged Scc2-E822K-pip (PIP mutant variant) (Q04002, form named): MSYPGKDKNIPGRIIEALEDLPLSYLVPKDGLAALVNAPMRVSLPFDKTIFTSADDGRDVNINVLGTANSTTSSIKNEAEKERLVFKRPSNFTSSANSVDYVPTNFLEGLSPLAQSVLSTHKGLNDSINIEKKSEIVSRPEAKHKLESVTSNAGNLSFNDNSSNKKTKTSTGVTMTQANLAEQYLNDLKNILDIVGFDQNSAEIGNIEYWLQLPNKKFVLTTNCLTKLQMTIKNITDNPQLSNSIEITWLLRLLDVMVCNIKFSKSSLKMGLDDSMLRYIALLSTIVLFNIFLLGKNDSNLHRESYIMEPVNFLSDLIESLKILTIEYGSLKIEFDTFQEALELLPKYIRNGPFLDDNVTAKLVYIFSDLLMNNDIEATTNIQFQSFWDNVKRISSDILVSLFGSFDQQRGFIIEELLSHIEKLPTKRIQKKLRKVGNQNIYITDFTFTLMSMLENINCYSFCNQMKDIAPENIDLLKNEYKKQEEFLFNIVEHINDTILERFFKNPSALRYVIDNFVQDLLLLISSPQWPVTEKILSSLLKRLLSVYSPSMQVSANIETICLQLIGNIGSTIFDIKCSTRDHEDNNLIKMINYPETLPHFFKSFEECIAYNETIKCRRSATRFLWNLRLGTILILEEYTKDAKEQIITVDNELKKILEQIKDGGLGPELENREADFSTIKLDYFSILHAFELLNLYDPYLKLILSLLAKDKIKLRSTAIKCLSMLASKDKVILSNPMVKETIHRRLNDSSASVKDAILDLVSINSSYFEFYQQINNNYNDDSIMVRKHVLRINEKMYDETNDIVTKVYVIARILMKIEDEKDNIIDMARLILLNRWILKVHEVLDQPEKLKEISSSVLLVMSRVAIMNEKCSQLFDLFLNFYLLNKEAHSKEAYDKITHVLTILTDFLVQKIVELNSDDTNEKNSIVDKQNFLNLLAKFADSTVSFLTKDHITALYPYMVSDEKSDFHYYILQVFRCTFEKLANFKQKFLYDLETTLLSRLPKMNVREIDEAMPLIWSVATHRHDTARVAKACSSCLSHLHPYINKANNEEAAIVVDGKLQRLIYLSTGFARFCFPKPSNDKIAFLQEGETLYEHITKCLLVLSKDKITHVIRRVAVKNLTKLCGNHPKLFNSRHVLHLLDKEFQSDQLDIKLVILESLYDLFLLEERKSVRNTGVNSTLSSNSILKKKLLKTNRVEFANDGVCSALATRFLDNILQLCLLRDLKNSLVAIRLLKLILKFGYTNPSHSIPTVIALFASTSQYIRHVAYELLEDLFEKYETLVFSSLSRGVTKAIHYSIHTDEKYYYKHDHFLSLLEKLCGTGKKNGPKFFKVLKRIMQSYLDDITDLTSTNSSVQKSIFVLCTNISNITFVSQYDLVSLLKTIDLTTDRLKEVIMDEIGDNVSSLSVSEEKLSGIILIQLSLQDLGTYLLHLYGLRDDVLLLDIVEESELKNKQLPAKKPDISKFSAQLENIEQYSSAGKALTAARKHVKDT

No constants are given. Whether binding was seen depends on the method and setting. In cells and extracts the contact can be indirect. Some entries that bind do so weakly or less than the wild type.

Assay [1] concerns the target recombinant GST-Pol30 fusion (yeast PCNA) (S. cerevisiae) (UniProt P15873). The experiment in a line: pull-down.
Assay [2] deals with N-terminally 7His8FLAG-tagged Scc2-E822K (S. cerevisiae) (UniProt Q04002). Kind of assay: cross-linking.
Assay [3] concerns the target N-terminally 7His8FLAG-tagged Scc2-E822K-pip (PIP mutant variant) (S. cerevisiae) (UniProt Q04002). Kind of assay: cross-linking.

On to “N-terminally 7His8FLAG-tagged Scc2-E822K (from UniProt Q04002 1-1493)”, for which the binding result in assay [1] is “binds”. In the case of “PCNA (yeast Pol30), endogenous (from UniProt P15873 1-258)”, the binding entry in assay [2] is “binds”; in assay [3], “no binding”.
